No constants are given. Whether binding was seen depends on the method and setting. Binding seen in cells or lysates may run through a third protein. Some binding calls cover weakened binding; strength is not graded here.
Target: endogenous PSTPIP1 (mouse (endogenous in osteoclasts)) (UniProt P97814)
Assay: co-IP; endogenous PSTPIP1 immunoprecipitated from osteoclast lysate (1% NP-40, 0.1% deoxycholate, 150 mM NaCl) with specific antibody and Protein G-sepharose, 4°C; western blotting

By UniProt entry, the sequences of proteins in these tests, tags left out.
UniProt P97814: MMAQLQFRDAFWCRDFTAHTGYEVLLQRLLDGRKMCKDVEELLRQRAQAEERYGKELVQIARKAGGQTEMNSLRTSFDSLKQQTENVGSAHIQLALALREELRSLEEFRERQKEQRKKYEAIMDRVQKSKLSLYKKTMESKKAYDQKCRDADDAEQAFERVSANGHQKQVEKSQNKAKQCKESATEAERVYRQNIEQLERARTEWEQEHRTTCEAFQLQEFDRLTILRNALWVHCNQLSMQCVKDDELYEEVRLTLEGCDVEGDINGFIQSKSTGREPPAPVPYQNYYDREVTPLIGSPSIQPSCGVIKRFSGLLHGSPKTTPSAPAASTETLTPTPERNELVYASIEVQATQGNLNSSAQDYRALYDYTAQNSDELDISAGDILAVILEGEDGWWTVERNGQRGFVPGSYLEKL

binding | Molecule
binds | Tyrosine-protein phosphatase non-receptor type 6 (from UniProt P29351-1 1-595) (enzyme)
binds | Pl(3,4,5)P3 5-phosphatase 2 (enzyme, UniProt Q6P549 1-1257) MASVCGTPSPGGALGSPAPAWYHRDLSRAAAEELLARAGRDGSFLVRDSESVAGAFALCVLYQKHVHTYRILPDGEDFLAVQTSQGVPVRRFQTLGELIGLYAQPNQGLVCALLLPVEGEREPDPPDDRDASDVEDEKPPLPPRSGSTSISAPVGPSSPLPTPETPTTPAAESTPNGLSTVSHEYLKGSYGLDLEAVRGGASNLPHLTRTLVTSCRRLHSEVDKVLSGLEILSKVFDQQSSPMVTRLLQQQSLPQTGEQELESLVLKLSVLKDFLSGIQKKALKALQDMSSTAPPAPLQPSIRKAKTIPVQAFEVKLDVTLGDLTKIGKSQKFTLSVDVEGGRLVLLRRQRDSQEDWTTFTHDRIRQLIKSQRVQNKLGVVFEKEKDRTQRKDFIFVSARKREAFCQLLQLMKNRHSKQDEPDMISVFIGTWNMGSVPPPKNVTSWFTSKGLGKALDEVTVTIPHDIYVFGTQENSVGDREWLDLLRGGLKELTDLDYRPIAMQSLWNIKVAVLVKPEHENRISHVSTSSVKTGIANTLGNKGAVGVSFMFNGTSFGFVNCHLTSGNEKTTRRNQNYLDILRLLSLGDRQLSAFDISLRFTHLFWFGDLNYRLDMDIQEILNYISRREFEPLLRVDQLNLEREKHKVFLRFSEEEISFPPTYRYERGSRDTYAWHKQKPTGVRTNVPSWCDRILWKSYPETHIICNSYGCTDDIVTSDHSPVFGTFEVGVTSQFISKKGLSKTSDQAYIEFESIEAIVKTASRTKFFIEFYSTCLEEYKKSFENDAQSSDNINFLKVQWSSRQLPTLKPILADIEYLQDQHLLLTVKSMDGYESYGECVVALKSMIGSTAQQFLTFLSHRGEETGNIRGSMKVRVPTERLGTRERLYEWISIDKDDTGAKSKVPSVSRGSQEHRSGSRKPASTETSCPLSKLFEEPEKPPPTGRPPAPPRAVPREEPLNPRLKSEGTSEQEGVAAPPPKNSFNNPAYYVLEGVPHQLLPLEPPSLARAPLPPATKNKVAITVPAPQLGRHRTPRVGEGSSSDEDSGGTLPPPDFPPPPLPDSAIFLPPNLDPLSMPVVRGRSGGEARGPPPPKAHPRPPLPPGTSPASTFLGEVASGDDRSCSVLQMAKTLSEVDYAPGPGRSALLPNPLELQPPRGPSDYGRPLSFPPPRIRESIQEDLAEEAPCPQGGRASGLGEAGMGAWLRAIGLERYEEGLVHNGWDDLEFLSDITEEDLEEAGVQDPAHKRLLLDTLQLSK
binds | Pl(3,4,5)P3 5-phosphatase 1 (enzyme, UniProt Q9ES52 1-1191) MPAMVPGWNHGNITRSKAEELLSRAGKDGSFLVRASESIPRAYALCVLFRNCVYTYRILPNEDDKFTVQASEGVPMRFFTKLDQLIDFYKKENMGLVTHLQYPVPLEEEDAIDEAEEDTVESVMSPPELPPRNIPMSAGPSEAKDLPLATENPRAPEVTRLSLSETLFQRLQSMDTSGLPEEHLKAIQDYLSTQLLLDSDFLKTGSSNLPHLKKLMSLLCKELHGEVIRTLPSLESLQRLFDQQLSPGLRPRPQVPGEASPITMVAKLSQLTSLLSSIEDKVKSLLHEGSESTNRRSLIPPVTFEVKSESLGIPQKMHLKVDVESGKLIVKKSKDGSEDKFYSHKKILQLIKSQKFLNKLVILVETEKEKILRKEYVFADSKKREGFCQLLQQMKNKHSEQPEPDMITIFIGTWNMGNAPPPKKITSWFLSKGQGKTRDDSADYIPHDIYVIGTQEDPLGEKEWLELLRHSLQEVTSMTFKTVAIHTLWNIRIVVLAKPEHENRISHICTDNVKTGIANTLGNKGAVGVSFMFNGTSLGFVNSHLTSGSEKKLRRNQNYMNILRFLALGDKKLSPFNITHRFTHLFWLGDLNYRVELPTWEAEAIIQKIKQQQYSDLLAHDQLLLERKDQKVFLHFEEEEITFAPTYRFERLTRDKYAYTKQKATGMKYNLPSWCDRVLWKSYPLVHVVCQSYGSTSDIMTSDHSPVFATFEAGVTSQFVSKNGPGTVDSQGQIEFLACYATLKTKSQTKFYLEFHSSCLESFVKSQEGENEEGSEGELVVRFGETLPKLKPIISDPEYLLDQHILISIKSSDSDESYGEGCIALRLETTEAQHPIYTPLTHHGEMTGHFRGEIKLQTSQGKMREKLYDFVKTERDESSGMKCLKNLTSHDPMRQWEPSGRVPACGVSSLNEMINPNYIGMGPFGQPLHGKSTLSPDQQLTAWSYDQLPKDSSLGPGRGEGPPTPPSQPPLSPKKFSSSTANRGPCPRVQEARPGDLGKVEALLQEDLLLTKPEMFENPLYGSVSSFPKLVPRKEQESPKMLRKEPPPCPDPGISSPSIVLPKAQEVESVKGTSKQAPVPVLGPTPRIRSFTCSSSAEGRMTSGDKSQGKPKASASSQAPVPVKRPVKPSRSEMSQQTTPIPAPRPPLPVKSPAVLQLQHSKGRDYRDNTELPHHGKHRQEEGLLGRTAMQ

From paper PMC5070766
